Measured values: patent US10525115B2 (Immatics Biotechnologies GmbH, priority 2014, dated 2020)

Tested on: primary AML samples
Assay: HLA class I ligandome analysis (W6/32 immunoaffinity purification, LC-MS/MS) of primary AML samples
Parameters: species or system human
Conditions: source protein (LiTAA); for Number of positive AMLs: AML patients (n=15); for rep. frequency: representation frequency in AML patients (n=15)

B1: DDX46 (protein, UniProt Q7L014 2-1031, looked up)
Probable ATP-dependent RNA …: GRESRHYRKRSASRGRSGSRSRSRSPSDKRSKRGDDRRSRSRDRDRRRERSRSRDKRRSRSRDRKRLRRSRSRERDRSRERRRSRSRDRRRSRSRSRGRRSRSSSPGNKSKKTENRSRSKEKTDGGESSKEKKKDKDDKEDEKEKDAGNFDQNKLEEEMRKRKERVEKWREEQRKKAMENIGELKKEIEEMKQGKKWSLEDDDDDEDDPAEAEKEGNEMEGEELDPLDAYMEEVKEEVKKFNMRSVKGGGGNEKKSGPTVTKVVTVVTTKKAVVDSDKKKGELMENDQDAMEYSSEEEEVDLQTALTGYQTKQRKLLEPVDHGKIEYEPFRKNFYVEVPELAKMSQEEVNVFRLEMEGITVKGKGCPKPIKSWVQCGISMKILNSLKKHGYEKPTPIQTQAIPAIMSGRDLIGIAKTGSGKTIAFLLPMFRHIMDQRSLEEGEGPIAVIMTPTRELALQITKECKKFSKTLGLRVVCVYGGTGISEQIAELKRGAEIIVCTPGRMIDMLAANSGRVTNLRRVTYVVLDEADRMFDMGFEPQVMRIVDNVRPDRQTVMFSATFPRAMEALARRILSKPIEVQVGGRSVVCSDVEQQVIVIEEEKKFLKLLELLGHYQESGSVIIFVDKQEHADGLLKDLMRASYPCMSLHGGIDQYDRDSIINDFKNGTCKLLVATSVAARGLDVKHLILVVNYSCPNHYEDYVHRAGRTGRAGNKGYAYTFITEDQARYAGDIIKALELSGTAVPPDLEKLWSDFKDQQKAEGKIIKKSSGFSGKGFKFDETEQALANERKKLQKAALGLQDSDDEDAAVDIDEQIESMFNSKKRVKDMAAPGTSSVPAPTAGNAEKLEIAKRLALRINAQKNLGIESQDVMQQATNAILRGGTILAPTVSAKTIAEQLAEKINAKLNYVPLEKQEEERQDGGQNESFKRYEEELEINDFPQTARWKVTSKEALQRISEYSEAAITIRGTYFPPGKEPKEGERKIYLAIESANELAVQKAKAEITRLIKEELIRLQNSYQPTNKGRYKVL
Number of positive AMLs: 3 | rep. frequency: [20.0%]

B2: LRRC8D (protein, UniProt Q7L1W4 1-858, looked up)
Volume-regulated anion …: MFTLAEVASLNDIQPTYRILKPWWDVFMDYLAVVMLMVAIFAGTMQLTKDQVVCLPVLPSPVNSKAHTPPGNAEVTTNIPKMEAATNQDQDGRTTNDISFGTSAVTPDIPLRATYPRTDFALPNQEAKKEKKDPTGRKTNLDFQQYVFINQMCYHLALPWYSKYFPYLALIHTIILMVSSNFWFKYPKTCSKVEHFVSILGKCFESPWTTKALSETACEDSEENKQRITGAQTLPKHVSTSSDEGSPSASTPMINKTGFKFSAEKPVIEVPSMTILDKKDGEQAKALFEKVRKFRAHVEDSDLIYKLYVVQTVIKTAKFIFILCYTANFVNAISFEHVCKPKVEHLIGYEVFECTHNMAYMLKKLLISYISIICVYGFICLYTLFWLFRIPLKEYSFEKVREESSFSDIPDVKNDFAFLLHMVDQYDQLYSKRFGVFLSEVSENKLREISLNHEWTFEKLRQHISRNAQDKQELHLFMLSGVPDAVFDLTDLDVLKLELIPEAKIPAKISQMTNLQELHLCHCPAKVEQTAFSFLRDHLRCLHVKFTDVAEIPAWVYLLKNLRELYLIGNLNSENNKMIGLESLRELRHLKILHVKSNLTKVPSNITDVAPHLTKLVIHNDGTKLLVLNSLKKMMNVAELELQNCELERIPHAIFSLSNLQELDLKSNNIRTIEEIISFQHLKRLTCLKLWHNKIVTIPPSITHVKNLESLYFSNNKLESLPVAVFSLQKLRCLDVSYNNISMIPIEIGLLQNLQHLHITGNKVDILPKQLFKCIKLRTLNLGQNCITSLPEKVGQLSQLTQLELKGNCLDRLPAQLGQCRMLKKSGLVVEDHLFDTLPLEVKEALNQDINIPFANGI
Number of positive AMLs: 3 | rep. frequency: [20.0%]

B3: BBS1 (protein, UniProt Q8NFJ9 2-593, looked up)
BBSome complex member BBS1: AAASSSDSDACGAESNEANSKWLDAHYDPMANIHTFSACLALADLHGDGEYKLVVGDLGPGGQQPRLKVLKGPLVMTESPLPALPAAAATFLMEQHEPRTPALALASGPCVYVYKNLRPYFKFSLPQLPPNPLEQDLWNQAKEDRIDPLTLKEMLESIRETAEEPLSIQSLRFLQLELSEMEAFVNQHKSNSIKRQTVITTMTTLKKNLADEDAVSCLVLGTENKELLVLDPEAFTILAKMSLPSVPVFLEVSGQFDVEFRLAAACRNGNIYILRRDSKHPKYCIELSAQPVGLIRVHKVLVVGSTQDSLHGFTHKGKKLWTVQMPAAILTMNLLEQHSRGLQAVMAGLANGEVRIYRDKALLNVIHTPDAVTSLCFGRYGREDNTLIMTTRGGGLIIKILKRTAVFVEGGSEVGPPPAQAMKLNVPRKTRLYVDQTLREREAGTAMHRAFQTDLYLLRLRAARAYLQALESSLSPLSTTAREPLKLHAVVQGLGPTFKLTLHLQNTSTTRPVLGLLVCFLYNEALYSLPRAFFKVPLLVPGLNYPLETFVESLSNKGISDIIKVLVLREGQSAPLLSAHVNMPGSEGLAAA
Number of positive AMLs: 3 | rep. frequency: [20.0%]

B4: GANC (protein, UniProt Q8TET4 1-914, looked up)
Neutral alpha-glucosidase C: MEAAVKEEISLEDEAVDKNIFRDCNKIAFYRRQKQWLSKKSTYQALLDSVTTDEDSTRFQIINEASKVPLLAEIYGIEGNIFRLKINEETPLKPRFEVPDVLTSKPSTVRLISCSGDTGSLILADGKGDLKCHITANPFKVDLVSEEEVVISINSLGQLYFEHLQILHKQRAAKENEEETSVDTSQENQEDLGLWEEKFGKFVDIKANGPSSIGLDFSLHGFEHLYGIPQHAESHQLKNTGDGDAYRLYNLDVYGYQIYDKMGIYGSVPYLLAHKLGRTIGIFWLNASETLVEINTEPAVEYTLTQMGPVAAKQKVRSRTHVHWMSESGIIDVFLLTGPTPSDVFKQYSHLTGTQAMPPLFSLGYHQCRWNYEDEQDVKAVDAGFDEHDIPYDAMWLDIEHTEGKRYFTWDKNRFPNPKRMQELLRSKKRKLVVISDPHIKIDPDYSVYVKAKDQGFFVKNQEGEDFEGVCWPGLSSYLDFTNPKVREWYSSLFAFPVYQGSTDILFLWNDMNEPSVFRGPEQTMQKNAIHHGNWEHRELHNIYGFYHQMATAEGLIKRSKGKERPFVLTRSFFAGSQKYGAVWTGDNTAEWSNLKISIPMLLTLSITGISFCGADIGGFIGNPETELLVRWYQAGAYQPFFRGHATMNTKRREPWLFGEEHTRLIREAIRERYGLLPYWYSLFYHAHVASQPVMRPLWVEFPDELKTFDMEDEYMLGSALLVHPVTEPKATTVDVFLPGSNEVWYDYKTFAHWEGGCTVKIPVALDTIPVFQRGGSVIPIKTTVGKSTGWMTESSYGLRVALSTKGSSVGELYLDDGHSFQYLHQKQFLHRKFSFCSSVLINSFADQRGHYPSKCVVEKILVLGFRKEPSSVTTHSSDGKDQPVAFTYCAKTSILSLEKLSLNIATDWEVRII
Number of positive AMLs: 3 | rep. frequency: [20.0%]

B5: ATP8B4 (protein, UniProt Q8TF62 1-1192, looked up)
Probable …: MFCSEKKLREVERIVKANDREYNEKFQYADNRIHTSKYNILTFLPINLFEQFQRVANAYFLCLLILQLIPEISSLTWFTTIVPLVLVITMTAVKDATDDYFRHKSDNQVNNRQSEVLINSKLQNEKWMNVKVGDIIKLENNQFVAADLLLLSSSEPHGLCYVETAELDGETNLKVRHALSVTSELGADISRLAGFDGIVVCEVPNNKLDKFMGILSWKDSKHSLNNEKIILRGCILRNTSWCFGMVIFAGPDTKLMQNSGKTKFKRTSIDRLMNTLVLWIFGFLICLGIILAIGNSIWESQTGDQFRTFLFWNEGEKSSVFSGFLTFWSYIIILNTVVPISLYVSVEVIRLGHSYFINWDRKMYYSRKAIPAVARTTTLNEELGQIEYIFSDKTGTLTQNIMTFKRCSINGRIYGEVHDDLDQKTEITQEKEPVDFSVKSQADREFQFFDHHLMESIKMGDPKVHEFLRLLALCHTVMSEENSAGELIYQVQSPDEGALVTAARNFGFIFKSRTPETITIEELGTLVTYQLLAFLDFNNTRKRMSVIVRNPEGQIKLYSKGADTILFEKLHPSNEVLLSLTSDHLSEFAGEGLRTLAIAYRDLDDKYFKEWHKMLEDANAATEERDERIAGLYEEIERDLMLLGATAVEDKLQEGVIETVTSLSLANIKIWVLTGDKQETAINIGYACNMLTDDMNDVFVIAGNNAVEVREELRKAKQNLFGQNRNFSNGHVVCEKKQQLELDSIVEETITGDYALIINGHSLAHALESDVKNDLLELACMCKTVICCRVTPLQKAQVVELVKKYRNAVTLAIGDGANDVSMIKSAHIGVGISGQEGLQAVLASDYSFAQFRYLQRLLLVHGRWSYFRMCKFLCYFFYKNFAFTLVHFWFGFFCGFSAQTVYDQWFITLFNIVYTSLPVLAMGIFDQDVSDQNSVDCPQLYKPGQLNLLFNKRKFFICVLHGIYTSLVLFFIPYGAFYNVAGEDGQHIADYQSFAVTMATSLVIVVSVQIALDTSYWTFINHVFIWGSIAIYFSILFTMHSNGIFGIFPNQFPFVGNARHSLTQKCIWLVILLTTVASVMPVVAFRFLKVDLYPTLSDQIRRWQKAQKKARPPSSRRPRTRRSSSRRSGYAFAHQEGYGELITSGKNMRAKNPPPTSGLEKTHYNSTSWIENLCKKTTDTVSSFSQDKTVKL
Number of positive AMLs: 3 | rep. frequency: [20.0%]

B6: PPIL4 (protein, UniProt Q8WUA2 1-492, looked up)
Peptidyl-prolyl cis-trans …: MAVLLETTLGDVVIDLYTEERPRACLNFLKLCKIKYYNYCLIHNVQRDFIIQTGDPTGTGRGGESIFGQLYGDQASFFEAEKVPRIKHKKKGTVSMVNNGSDQHGSQFLITTGENLDYLDGVHTVFGEVTEGMDIIKKINETFVDKDFVPYQDIRINHTVILDDPFDDPPDLLIPDRSPEPTREQLDSGRIGADEEIDDFKGRSAEEVEEIKAEKEAKTQAILLEMVGDLPDADIKPPENVLFVCKLNPVTTDEDLEIIFSRFGPIRSCEVIRDWKTGESLCYAFIEFEKEEDCEKAFFKMDNVLIDDRRIHVDFSQSVAKVKWKGKGGKYTKSDFKEYEKEQDKPPNLVLKDKVKPKQDTKYDLILDEQAEDSKSSHSHTSKKHKKKTHHCSEEKEDEDYMPIKNTNQDIYREMGFGHYEEEESCWEKQKSEKRDRTQNRSRSRSRERDGHYSNSHKSKYQTDLYERERSKKRDRSRSPKKSKDKEKSKYR
Number of positive AMLs: 3 | rep. frequency: [20.0%]
